Reference: PMC10198857
No constants are given. Whether binding was seen depends on the method and setting. Binding seen in cells or lysates may run through a third protein. Some results given as binding are weak or reduced against the parent protein; the word gives no strength.

The chains behind the UniProt entries cited, without tags or fusion partners. Residues count along the entry.
UniProt P15941, residues 24-1255: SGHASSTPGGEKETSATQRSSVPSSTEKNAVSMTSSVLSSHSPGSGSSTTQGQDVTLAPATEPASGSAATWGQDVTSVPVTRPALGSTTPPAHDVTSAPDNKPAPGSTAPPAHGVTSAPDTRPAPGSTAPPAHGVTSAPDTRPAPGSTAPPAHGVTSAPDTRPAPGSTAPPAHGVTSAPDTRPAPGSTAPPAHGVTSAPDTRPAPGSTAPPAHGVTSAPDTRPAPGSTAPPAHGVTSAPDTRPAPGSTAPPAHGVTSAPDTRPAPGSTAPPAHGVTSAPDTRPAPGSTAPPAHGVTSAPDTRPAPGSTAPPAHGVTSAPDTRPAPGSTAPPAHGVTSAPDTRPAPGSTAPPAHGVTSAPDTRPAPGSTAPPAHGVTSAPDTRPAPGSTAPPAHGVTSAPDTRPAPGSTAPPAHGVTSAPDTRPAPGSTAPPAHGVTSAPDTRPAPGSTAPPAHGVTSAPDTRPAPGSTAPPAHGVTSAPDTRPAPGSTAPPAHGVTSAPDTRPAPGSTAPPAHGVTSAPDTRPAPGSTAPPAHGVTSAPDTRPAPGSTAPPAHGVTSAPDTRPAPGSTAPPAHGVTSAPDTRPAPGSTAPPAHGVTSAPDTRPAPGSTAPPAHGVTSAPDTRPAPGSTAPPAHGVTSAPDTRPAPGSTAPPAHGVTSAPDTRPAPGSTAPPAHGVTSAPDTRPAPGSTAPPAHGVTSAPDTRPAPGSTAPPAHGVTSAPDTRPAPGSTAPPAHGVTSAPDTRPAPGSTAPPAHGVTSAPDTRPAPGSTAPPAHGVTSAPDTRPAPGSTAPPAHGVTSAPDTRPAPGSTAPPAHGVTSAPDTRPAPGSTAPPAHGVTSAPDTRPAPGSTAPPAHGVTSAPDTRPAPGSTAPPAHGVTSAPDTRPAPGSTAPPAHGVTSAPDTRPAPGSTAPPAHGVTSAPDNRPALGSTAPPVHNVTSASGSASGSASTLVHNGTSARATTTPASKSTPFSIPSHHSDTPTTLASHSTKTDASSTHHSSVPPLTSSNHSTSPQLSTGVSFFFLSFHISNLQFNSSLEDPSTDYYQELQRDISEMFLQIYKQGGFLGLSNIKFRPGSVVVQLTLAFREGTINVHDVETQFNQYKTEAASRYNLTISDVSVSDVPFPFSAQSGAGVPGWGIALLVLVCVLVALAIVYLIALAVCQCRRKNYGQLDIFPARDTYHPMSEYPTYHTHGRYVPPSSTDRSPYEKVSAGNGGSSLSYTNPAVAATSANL
UniProt P35222: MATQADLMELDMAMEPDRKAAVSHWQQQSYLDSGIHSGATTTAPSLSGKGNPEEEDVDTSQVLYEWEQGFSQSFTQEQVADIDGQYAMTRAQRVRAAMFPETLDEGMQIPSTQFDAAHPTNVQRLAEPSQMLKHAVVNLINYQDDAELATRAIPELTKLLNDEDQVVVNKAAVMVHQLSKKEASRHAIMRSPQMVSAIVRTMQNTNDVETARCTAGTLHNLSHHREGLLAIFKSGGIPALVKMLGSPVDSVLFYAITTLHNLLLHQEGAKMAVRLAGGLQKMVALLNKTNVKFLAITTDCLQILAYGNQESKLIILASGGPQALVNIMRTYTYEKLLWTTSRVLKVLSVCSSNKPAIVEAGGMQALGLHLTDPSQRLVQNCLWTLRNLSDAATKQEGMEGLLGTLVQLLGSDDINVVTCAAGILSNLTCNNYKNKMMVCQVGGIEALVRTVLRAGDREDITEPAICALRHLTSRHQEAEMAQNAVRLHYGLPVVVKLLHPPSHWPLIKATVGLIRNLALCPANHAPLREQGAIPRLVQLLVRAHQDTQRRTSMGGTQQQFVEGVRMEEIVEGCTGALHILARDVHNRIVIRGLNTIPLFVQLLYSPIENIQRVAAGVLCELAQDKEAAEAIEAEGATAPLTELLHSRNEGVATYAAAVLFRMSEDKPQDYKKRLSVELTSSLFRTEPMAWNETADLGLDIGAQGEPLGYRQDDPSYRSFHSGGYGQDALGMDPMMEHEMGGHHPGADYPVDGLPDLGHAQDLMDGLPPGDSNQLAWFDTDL

Molecular target: mucin 1 (MUC1) (human (endogenous in ESCC cells)) (UniProt P15941)
Assay: co-IP; ESCC cells; which protein was precipitated is not told; methods in Supplementary file 1 (not shown)

binding: binds
Substance: β-catenin (from UniProt P35222 1-781)
